Test results as given in paper PMC4117747, “The N-terminus of Mcm10 is important for interaction with the 9-1-1 clamp and in resistance to DNA damage” (Nucleic Acids Research, 2014).
These are yes or no findings as the source states them, for the method shown. For part of these data: In cells and extracts the contact can be indirect. Some results given as binding are weak or reduced against the parent protein; the word gives no strength. Tags and fused reporters may be left off the sequences shown.

Legend:
[1] = target: T1, Mcm10Δ100 (LexA fusion) (S. cerevisiae) (UniProt P32354); test: co-IP; overexpressed LexA-tagged Mcm10 constructs with HA-tagged Mec3; anti-LexA beads pull down Mcm10; cells untreated or exposed to UV light
T1 sequence: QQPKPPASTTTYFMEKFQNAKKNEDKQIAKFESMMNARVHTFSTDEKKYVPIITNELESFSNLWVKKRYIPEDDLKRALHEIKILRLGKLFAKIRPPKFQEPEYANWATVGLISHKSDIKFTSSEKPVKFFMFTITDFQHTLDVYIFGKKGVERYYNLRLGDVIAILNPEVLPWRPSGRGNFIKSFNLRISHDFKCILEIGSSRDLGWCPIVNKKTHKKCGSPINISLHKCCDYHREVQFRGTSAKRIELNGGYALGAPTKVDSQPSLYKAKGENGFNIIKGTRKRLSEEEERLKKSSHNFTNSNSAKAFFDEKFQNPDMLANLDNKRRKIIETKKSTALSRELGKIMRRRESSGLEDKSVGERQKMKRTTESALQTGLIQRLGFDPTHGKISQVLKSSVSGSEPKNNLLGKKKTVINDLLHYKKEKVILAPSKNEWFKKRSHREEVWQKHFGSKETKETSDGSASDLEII

[2] = target: T2, Mcm10 (LexA fusion, wild type) (S. cerevisiae) (UniProt P32354); test: as above
T2 sequence: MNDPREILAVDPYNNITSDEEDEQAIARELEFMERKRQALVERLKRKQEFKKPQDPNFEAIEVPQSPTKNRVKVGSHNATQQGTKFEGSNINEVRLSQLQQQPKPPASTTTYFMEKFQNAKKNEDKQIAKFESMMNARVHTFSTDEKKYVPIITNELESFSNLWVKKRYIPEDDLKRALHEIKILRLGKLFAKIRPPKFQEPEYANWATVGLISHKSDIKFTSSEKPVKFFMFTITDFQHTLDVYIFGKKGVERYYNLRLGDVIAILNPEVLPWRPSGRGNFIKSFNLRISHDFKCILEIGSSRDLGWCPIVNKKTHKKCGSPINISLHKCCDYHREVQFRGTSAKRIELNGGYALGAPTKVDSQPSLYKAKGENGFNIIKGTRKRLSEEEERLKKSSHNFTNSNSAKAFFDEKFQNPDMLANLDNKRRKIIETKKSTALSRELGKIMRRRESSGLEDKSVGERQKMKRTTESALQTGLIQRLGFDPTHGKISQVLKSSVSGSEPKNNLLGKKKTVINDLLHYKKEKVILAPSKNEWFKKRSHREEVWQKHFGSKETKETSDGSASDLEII

[3] = target: T3, Mcm10 L242A (two-hybrid fusion) (S. cerevisiae) (UniProt P32354); test: two-hybrid; yeast two-hybrid with pBTM116 (LexA) and pACT2 fusions; β-galactosidase activity in cell extracts, in triplicate from at least three clones
T3 sequence: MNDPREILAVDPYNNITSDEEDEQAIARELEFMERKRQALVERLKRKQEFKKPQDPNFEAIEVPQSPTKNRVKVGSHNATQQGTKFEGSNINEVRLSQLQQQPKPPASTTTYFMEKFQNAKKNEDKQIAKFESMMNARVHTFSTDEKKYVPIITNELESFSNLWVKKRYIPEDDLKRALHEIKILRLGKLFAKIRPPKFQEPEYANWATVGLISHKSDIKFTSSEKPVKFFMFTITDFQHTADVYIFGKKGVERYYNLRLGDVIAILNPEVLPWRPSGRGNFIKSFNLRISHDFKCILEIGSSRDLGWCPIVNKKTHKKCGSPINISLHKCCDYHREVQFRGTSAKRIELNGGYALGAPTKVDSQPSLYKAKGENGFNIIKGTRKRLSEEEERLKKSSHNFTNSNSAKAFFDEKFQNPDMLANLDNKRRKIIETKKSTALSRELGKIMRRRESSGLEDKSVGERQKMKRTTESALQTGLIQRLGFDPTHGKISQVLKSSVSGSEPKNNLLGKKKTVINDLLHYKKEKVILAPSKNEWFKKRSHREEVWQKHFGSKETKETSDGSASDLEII

- binding [1]: binds
- binding [2]: binds
- binding [3]: binds weakly
B1: Mec3 (pACT2 fusion, wild type) (protein, UniProt Q02574 1-474)
chain: MKLKLIVNGCEAPDDYKLLRTTINTVASLRKTAILRFNSERLTIISTPKSSLNSSNNGTILRGDTGQLWCTIPHDVFRLYTVISARELNTITMECNCDSLLSVFKRYDRVMNQGSSSNMTIKLQSMPEWNTNNGTLSGGTAGGVDTTSKPNPICALGITFEEIVHTSGPNDAIVMNGGVDEHNGLPTTVGTGNLLASNKVIMHSFKVPVKLLFRAQDTRIQEPMINYIQLMMYKLPPISGEFGSAFHGFIRRVERYSNVNHIHLMGVKKKEHGNEGDDVELKIIVNELDWHLEICWNGPLDSVIQRQEGLTDNPSQNQHIDTDGRQEEGSLPIIEADKPMSSLYTNTRDREMEENIRYDEDLLRIEDSSIADTRGNIYTADTSGDTEFNDISVMVEKAEQESSSTHEVIIRCKDWKVCSKLYAAFEEVVLAISHDESCVFHCSLDRGSLEDSEDVEKPRERGQIIYYIARSKGL
